The source of these data is patent US11672758B2, “Endoxifen methods and compositions for inhibition of protein kinase C” (Jina Pharmaceuticals, Inc., priority 2006, dated 2023).

The test system of the assay is PKC. Nature of the assay: PKC kinase activity assay kit (Assay Designs). The class given is biochemical. Conditions: PKC 10 ng/well. As to the method:
A PKC kinase activity assay kit (Assay Designs, Ann Arbor, Mich.) was used to test endoxifen PKC inhibitory activity 0.025, 0.05, 0.1, or 0.2 mM endoxifen was used in a reaction mix containing PKC 10 ng/well. Tamoxifen in same concentration was used as a positive control. Endoxifen inhibited PKC activity in concentration dependent manner. The percentage PKC inhibition ranged between 12 and 80 with endoxifen concentration between 0.025 and 0.2 mM, respectively.

Consider `CC/C(=C(\c1ccccc1)c1ccc(OCCN(C)C)cc1)c1ccccc1` [tamoxifen], for which the “percentage PKC inhibition” value runs as follows: (0.025 mM) “negligible PKC inhibition”; (0.05 mM) “negligible PKC inhibition”; (0.1 mM) 35%; (0.2 mM) 25%.
